Experimental data: PubChem BioAssay AID212 (DTP/NCI, 2004)
The list is a part of this screen's results and no random one: it gathers tests that were run many times, whatever their T/C, doses with no T/C, and many T/C values between a quarter and a half above the control. Further doses and runs are listed elsewhere. T/C gives the treated animals as a percentage of the vehicle group. Schedules are NCI's codes, taken here to give the interval after Q, in days (D) or hours (H), and the number of doses after X. Some T/C values carry the count of animals alive at the toxicity check (mostly the fifth day); where none is given, no animal had died by that day. Some entries were tested several times; the results are listed from low to high. Additions like (4×) say how often a value occurs here. Some entries give survivors of the animals treated and no T/C: the source files T/C as zero there, which appears to mark a toxic dose or a test without result, not a measured value. Survivors were counted at the toxicity check, usually on the fifth day, unless a day is given; later deaths do not show.

Test system: BDF1 mice, colon carcinoma 38 sc, T/C %
Experiment: NCI In Vivo Anticancer Drug Screen. Data for tumor model Colon Carcinoma 38 (subcutaneous) in B6D2F1 (BDF1) mice
Conditions: T/C endpoint: median tumor weight (est.), higher T/C = larger tumour; for T/C: evaluated on day 20
Summary of the method: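 Ratio of survival or tumor size, compound-treated animals relative to vehicle controls, in tumor-bearing mice.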

[1] = dose: 6.0 mg/kg/injection, schedule: Q07DX002 (ip), vehicle: saline
[2] = dose: 12.0 mg/kg/injection, schedule: Q07DX002 (ip), vehicle: saline
[3] = dose: 24.0 mg/kg/injection, schedule: Q07DX002 (ip), vehicle: saline
[4] = dose: 48.0 mg/kg/injection, schedule: Q07DX002 (ip), vehicle: saline
[5] = dose: 64.0 mg/kg/injection, schedule: Q07DX002 (ip), vehicle: Klucel (hydroxypropylcellulose) (HPC)
[6] = dose: 50.0 mg/kg/injection, schedule: Q07DX002 (ip), vehicle: saline
[7] = dose: 100.0 mg/kg/injection, schedule: Q07DX002 (ip), vehicle: Klucel (hydroxypropylcellulose) (HPC)
[8] = dose: 100.0 mg/kg/injection, schedule: Q07DX002 (ip), vehicle: saline

## O=CC(NC(=O)N(CCCl)N=O)C(O)C(O)C(O)CO (stereo not given)
dose: 1.87 mg/kg/injection, schedule: Q07DX003 (ip), vehicle: saline
  T/C: 133 % of control
dose: 2.0 mg/kg/injection, schedule: Q07DX002 (ip), vehicle: saline
  T/C: 131 % of control
dose: 3.0 mg/kg/injection, schedule: Q07DX002 (ip), vehicle: saline
  T/C: 53 [9 of 10 alive on day 20], 68, 82, 83, 84, 95, 101, 116 [9 of 10 alive on day 20], 123, 129, 152 % of control
[1]
  T/C: 63 [9 of 10 alive on day 20], 67, 76, 81 [9 of 10 alive on day 20], 94 (2×), 95, 96 (2×), 96 [9 of 10 alive on day 20], 118, 120 % of control
[2]
  T/C: 26, 35, 55, 63, 67, 72, 82, 84, 88, 94, 96, 113 % of control
[3]
  T/C: 4 [7 of 10 alive], 13 [8 of 10 alive on day 20], 23, 26, 29, 33, 45 [9 of 10 alive on day 20], 47, 57 % of control
  survivor count: 5 of 10 on day 20
[4]
  T/C: 46 % of control [7 of 10 alive on day 20]
  survivor count: 0 of 10 on day 20, 1 of 10, 1 of 10 on day 20, 4 of 10 on day 20
dose: 48.0 mg/kg/injection, schedule: Q07DX003 (ip), vehicle: saline
  survivor count: 6 of 10

## CC1OC1C(=O)C1(O)C(C)C(O)C23OC2(C(O)c2c(O)cccc2C3=O)C1O (stereo not given)
dose: 32.0 mg/kg/injection, schedule: Q07DX002 (ip), vehicle: Klucel (hydroxypropylcellulose) (HPC)
  survivor count: 2 of 10 on day 20
[5]
  survivor count: 2 of 10 on day 20

## N=c1ccn2c(n1)OC1C(O)C(CO)OC12 (stereo not given)
[6]
  T/C: 129 % of control
dose: 1600.0 mg/kg/injection, schedule: Q07DX002 (ip), vehicle: saline
  survivor count: 5 of 10 on day 20
dose: 3200.0 mg/kg/injection, schedule: Q07DX002 (ip), vehicle: saline
  survivor count: 0 of 10 on day 20

## O=Cc1ccccc1
dose: 400.0 mg/kg/injection, schedule: Q07DX002 (ip), vehicle: saline with Tween-80
  survivor count: 1 of 10 on day 20
dose: 800.0 mg/kg/injection, schedule: Q07DX002 (ip), vehicle: Klucel (hydroxypropylcellulose) (HPC)
  survivor count: 6 of 10 on day 20
dose: 800.0 mg/kg/injection, schedule: Q07DX002 (ip), vehicle: saline with Tween-80
  survivor count: 0 of 10 on day 20

## CNC(=O)OCc1c(COC(=O)NC)c(-c2ccc(Cl)c(Cl)c2)n2c1Cc1ccccc1C2
dose: 400.0 mg/kg/injection, schedule: Q07DX002 (ip), vehicle: distilled water + Tween-80
  survivor count: 6 of 10 on day 20
dose: 800.0 mg/kg/injection, schedule: Q07DX002 (ip), vehicle: distilled water + Tween-80
  survivor count: 2 of 10 on day 20

## CC(=O)OCC1OC(OC2=C(CC=C(C)C)C(=O)c3ccccc3C2=O)C(OC(C)=O)C(OC(C)=O)C1OC(C)=O (stereo not given)
dose: 25.0 mg/kg/injection, schedule: Q07DX002 (ip), vehicle: Klucel (hydroxypropylcellulose) (HPC)
  T/C: 129 % of control [9 of 10 alive]
[7]
  T/C: 132 % of control

## Cc1nc(N)nc(N)c1-c1ccc(Cl)c(Cl)c1
dose: 1.25 mg/kg/injection, schedule: Q07DX002 (ip), vehicle: saline
  T/C: 132 % of control
dose: 5.0 mg/kg/injection, schedule: Q07DX002 (ip), vehicle: saline
  T/C: 139 % of control
dose: 5.0 mg/kg/injection, schedule: Q07DX002 (ip), vehicle: suspension in saline
  T/C: 138 % of control
dose: 40.0 mg/kg/injection, schedule: Q07DX002 (ip), vehicle: saline
  survivor count: 5 of 10 on day 20
dose: 80.0 mg/kg/injection, schedule: Q07DX002 (ip), vehicle: suspension in saline
  survivor count: 2 of 10 on day 20

## O=C(O)Cc1cccc2c(=O)cc(-c3ccc4ccccc4c3)oc12
dose: 400.0 mg/kg/injection, schedule: Q07DX002 (ip), vehicle: saline
  survivor count: 6 of 10 on day 20

## CCN(CC)C(C)(C)C(=O)/C=C/c1ccccc1
dose: 500.0 mg/kg/injection, schedule: Q07DX002 (ip), vehicle: saline with Tween-80
  survivor count: 1 of 10 on day 20

## O=C(CN1CCOCC1)Nc1nc(-c2ccc(Cl)cc2)cs1
dose: 800.0 mg/kg/injection, schedule: Q07DX002 (ip), vehicle: DMSO
  survivor count: 1 of 10 on day 20

## O=S(=O)(O)O
dose: 400.0 mg/kg/injection, schedule: Q07DX002 (ip), vehicle: Klucel (hydroxypropylcellulose) (HPC)
  survivor count: 0 of 10 on day 20

## CCN(Cc1ccc(Cl)c(Cl)c1)c1ccc2nc(N)nc(N)c2c1C
dose: 12.5 mg/kg/injection, schedule: Q07DX002 (ip), vehicle: distilled water + Tween-80
  T/C: 133 % of control
dose: 25.0 mg/kg/injection, schedule: Q07DX002 (ip), vehicle: distilled water + Tween-80
  T/C: 131 and 133 % of control
dose: 200.0 mg/kg/injection, schedule: Q07DX002 (ip), vehicle: distilled water + Tween-80
  survivor count: 1 of 10 on day 20

## CC(C)[C@](O)(C(=O)OCC1=CCN2CC[C@@H](O)[C@@H]12)[C@H](C)O
dose: 12.5 mg/kg/injection, schedule: Q07DX002 (ip), vehicle: saline
  T/C: 144 % of control
dose: 25.0 mg/kg/injection, schedule: Q07DX002 (ip), vehicle: saline
  survivor count: 6 of 10 on day 20
[8]
  T/C: 132 % of control [9 of 10 alive on day 20]
dose: 200.0 mg/kg/injection, schedule: Q07DX002 (ip), vehicle: water
  T/C: 137 % of control
dose: 800.0 mg/kg/injection, schedule: Q07DX002 (ip), vehicle: water
  survivor count: 0 of 10 on day 20
dose: 1600.0 mg/kg/injection, schedule: Q07DX002 (ip), vehicle: water
  survivor count: 0 of 10 on day 20

## CCCCNC(C)C1(O)Cc2c(O)c3c(c(O)c2C(OC2CC(N)C(O)C(C)O2)C1)C(=O)c1c(OC)cccc1C3=O (stereo not given)
dose: 20.0 mg/kg/injection, schedule: Q07DX002 (ip), vehicle: saline
  T/C: 128 % of control [8 of 10 alive on day 20]
dose: 640.0 mg/kg/injection, schedule: Q07DX002 (ip), vehicle: saline
  survivor count: 6 of 10 on day 20

## OC(C1CO1)C(O)C1CO1 (stereo not given)
dose: 4.0 mg/kg/injection, schedule: Q07DX002 (ip), vehicle: saline
  T/C: 132 % of control
dose: 16.0 mg/kg/injection, schedule: Q07DX002 (ip), vehicle: saline
  survivor count: 0 of 10 on day 20
dose: 16.0 mg/kg/injection, schedule: Q07DX003 (ip), vehicle: saline
  survivor count: 2 of 10

## Clc1ccc(C(c2ccc(Cl)cc2)C(Cl)(Cl)Cl)cc1
[5]
  T/C: 127 % of control

## C=C[Si]12OCCN(CCO1)CCO2
[7]
  T/C: 130 % of control

## O=CC(O)C(O)C(O)C(O)C(=O)O.[NH-]C1CCCCC1[NH-].[Pt+2] (stereo not given)
[6]
  survivor count: 0 of 10 on day 20 and 2 of 10 on day 20
[8]
  survivor count: 1 of 10 on day 20
dose: 200.0 mg/kg/injection, schedule: Q07DX002 (ip), vehicle: saline
  survivor count: 0 of 10 on day 20

## c1ccc2c(c1)[As]=c1ccccc1=[As]2 (stereo not given)
[1]
  T/C: 128 % of control
[2]
  T/C: 142 % of control [9 of 10 alive on day 20]
[3]
  T/C: 145 % of control

## CCC(c1ccc(OC(=O)Cc2ccc(N(CCCl)CCCl)cc2)cc1)C(CC)c1ccc(OC(=O)Cc2ccc(N(CCCl)CCCl)cc2)cc1 (stereo not given)
dose: 37.5 mg/kg/injection, schedule: Q07DX002 (ip), vehicle: saline with Tween-80
  T/C: 143 % of control
dose: 75.0 mg/kg/injection, schedule: Q07DX002 (ip), vehicle: saline with Tween-80
  T/C: 126 and 133 % of control
